{"source": "patent US20030113665A1", "about": "“Optical data medium containing, in the information layer, a dye as a light-absorbing compound” (priority 2001, published 2003)", "experiment": "Recording/readout test of optical disc with spin-coated merocyanine information layer"}
{"smiles": "CN1/C(=C\\C=C(\\C#N)c2nc3ccccc3s2)C(C)(C)c2ccccc21", "note": "[Example 76]", "values": [{"measurement": "modulation ratio (reflectivity from the marks/RInit)", "setting": "0.69 μm mark, 404 nm", "result": "~80", "unit": "%"}, {"measurement": "carrier-to-noise ratio (C/N), groove", "setting": "30 kHz RBW, 404 nm, NA 0.85, 0.69 μm mark, groove", "result": 57.4, "unit": "dB"}, {"measurement": "carrier-to-noise ratio (C/N), land", "setting": "30 kHz RBW, 404 nm, NA 0.85, 0.69 μm mark, land", "result": 53.0, "unit": "dB"}, {"measurement": "C/N value, small mark recording", "setting": "mark and space length 0.17 μm, 1 pulse inside one mark", "result": 40.0, "unit": "dB"}]}
